In PubChem BioAssay AID230 (DTP/NCI, 2004):
The list is a part of this screen's results and no random one: it covers a few groups of compounds. Not every dose and run of a compound is shown. T/C gives the treated animals as a percentage of the vehicle group. Some doses have a count of surviving animals in place of a T/C: the source files T/C as zero there, which appears to mark a toxic dose or a test without result, not a measured value. Some doses without a T/C left all or most animals alive at the check, yet need not have been tolerated: survival well below the control is almost never listed, so the zero probably covers shortened survival too. Counts of survivors are from the toxicity check (mostly the fifth day) where no day follows; animals may have died later. Schedules are NCI's codes, read here as Q, the interval in days (D) or hours (H), X, the number of doses. Where survival is the endpoint, the PubChem record calls one and a half times the control and up active, and a quarter to a half above the control has no call in these data; cut-offs in other NCI protocols can differ. Additions like (4×) count equal records among those shown. Some T/C values carry the count of animals alive at the toxicity check (mostly the fifth day); where neither a count nor a note follows, no animal had died by that day. Some entries were tested several times; their values stand side by side, smallest first.

Tested on: C3H/He mice, Gardner lymphosarcoma 6C3HED ip, survival T/C
Assay: NCI In Vivo Anticancer Drug Screen. Data for tumor model Lymphosarcoma Gardner 6C3HED (intraperitoneal) in C3H/He mice
Conditions: T/C endpoint: survival time, mean or median, schedule: Q01DX010 (ip), vehicle: saline, higher T/C = longer survival
Method: The antitumor activity of compounds was measured in mice bearing transplantable tumors. Survival or tumor size were measured and the results are expressed as the measurement made in the treated group (T) divided by the measurement made in the vehicle treated control group (C). The tumor model used in this assay is Lymphosarcoma Gardner 6C3HED (intraperitoneal) in C3H/He mice

| Structure (SMILES) | T/C (dose: 10.0 mg/kg/injection) | T/C (dose: 14.0 mg/kg/injection) | T/C (dose: 20.0 mg/kg/injection) | T/C (dose: 30.0 mg/kg/injection) | T/C (dose: 0.25 mg/kg/injection) | T/C (dose: 0.5 mg/kg/injection) | T/C (dose: 1.0 mg/kg/injection) | T/C (dose: 2.0 mg/kg/injection) | survivor count (dose: 4.0 mg/kg/injection) |
| --- | --- | --- | --- | --- | --- | --- | --- | --- | --- |
| CC[C@@H](C)[C@@H]1NC(=O)/C(=C(\C)O)C1=O.c1ccc(CNCCNCc2ccccc2)cc1 | 103 % of control | 107 % of control | 103 % of control | 103 % of control | – | – | – | – | – |
| Cc1[nH]c(=O)[nH]c(=O)c1N(CCCl)CCCl | – | – | – | – | 100 % of control | 103 % of control (2×) | 115 and 121 % of control [5 of 6 alive] | 132 and 150 % of control | 5 of 6 |
